Assay results from the supplement of paper PMC7024190.
Where a name gives a salt, the structure may show the parent alone. This is one part of the list. Repeats in this data set agree poorly, so a single value says little.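 The cells were human embryonic kidney cells carrying a Renilla luciferase gene, driven by the HSV-TK promoter, on a plasmid put in briefly by transfection. This is the first-round screen of about ten thousand compounds, looking for ones that raise reporter output.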

tested on: HEK 293FT; assay: log relative Renilla luciferase luminescence (reporter expression vs reference, reference not stated) (log (base not stated)); higher = higher recombinant reporter expression; settings: 10 µM; time after transfection 48 h

Row | SMILES | log
1 | CN(C)CCCCSC(=N)N | 0.03
2 | O=C1NC(=O)c2cc(Nc3ccc(F)cc3)c(Nc3ccc(F)cc3)cc21 | -0.0275
3 | COc1ccc(OC)c2c(=S)c3ccccc3[nH]c12 | -0.0381
4 | CN(C)CCCSc1ccccc1NC(=O)/C=C/c1ccccc1 [Cinanserin hydrochloride] | 0.156
5 | CC1(CN2CCC(n3c(=O)[nH]c4ccccc43)CC2)OCc2ccccc2-n2cccc21 (stereo not given) | -0.241
6 | COC(=O)c1sccc1S(=O)(=O)Nc1ccc(Nc2ccccc2)cc1OC | 0.0139
7 | O=C(O)c1cccnc1C(=O)O [Quinolinic acid] | -0.738
8 | Cc1ccc(O)c(N=Nc2ccccc2)n1 | -0.085
9 | COc1cc2c(cc1OC)-c1c/c(=N\c3c(C)cc(C)cc3C)n(C)c(=O)n1CC2 [Trequinsin hydrochloride] | -0.0418
10 | CCN1CCC[C@H]1CNC(=O)c1cc(S(N)(=O)=O)ccc1OC [(S)-(-)-Sulpiride] | 0.0692
11 | CC(=O)NCC(=O)N[C@H](CCC(=O)O)C(=O)O [N-Acetylglycyl-D-glutamic acid] | 0.0389
12 | CNS(=O)(=O)Cc1ccc2[nH]cc(CCN(C)C)c2c1 [Sumatriptan succinate] | -0.056
13 | CNCCC(Oc1ccc(C(F)(F)F)cc1)c1ccccc1 (stereo not given) [Fluoxetine hydrochloride] | 0.0168
14 | O=C(Nc1ccccc1)C12CC1C(=NO)c1ccccc1O2 (stereo not given) | -0.151
15 | O=C(c1ccc(F)cc1)C1CCN(CCCCc2ccccc2)CC1 [4-(4-Fluorobenzoyl)-1-(4-phenylbutyl)-piperidine oxalate] | -0.0142
16 | CC1=NN(c2ccccc2)C(=O)C1 | 0.06
17 | CS(=O)(=O)Nc1c(O)ccc2c1CCCC2C1=NCCN1 (stereo not given) | -0.0572
18 | CCOC(=O)C1=C(COCCN)NC(C)=C(C(=O)OC)C1c1ccccc1Cl (stereo not given) [Amlodipine besylate] | -0.17
19 | Cc1cc(Cn2cnc3c2CC(C(=O)O)N(C(=O)C(c2ccccc2)c2ccccc2)C3)ccc1N(C)C (stereo not given) | -0.0903
20 | CNCCCC12CCC(c3ccccc31)c1ccccc12 [Maprotiline hydrochloride] | -0.00324

Looked up by compound from above (3):
Row | SMILES | log
10 | CCN1CCC[C@H]1CNC(=O)c1cc(S(N)(=O)=O)ccc1OC [(S)-(-)-Sulpiride] | 0.0692
13 | CNCCC(Oc1ccc(C(F)(F)F)cc1)c1ccccc1 (stereo not given) [Fluoxetine hydrochloride] | 0.0168
15 | O=C(c1ccc(F)cc1)C1CCN(CCCCc2ccccc2)CC1 [4-(4-Fluorobenzoyl)-1-(4-phenylbutyl)-piperidine oxalate] | -0.0142

Next entries.

Row | SMILES | log
21 | Nc1nc2c(cnn2CCc2ccccc2)c2nc(-c3ccco3)nn12 | -0.0171
22 | CN(CCCN1c2ccccc2CCc2ccccc21)CC(=O)c1ccc(Cl)cc1 [Lofepramine] | 0.0254
23 | CCc1cc2c(c(CC)n1)CCC(=O)N2Cc1ccc(-c2ccccc2-c2nn[nH]n2)cc1 [ZD 7155 hydrochloride] | 0.0674
24 | O=C(O)CCC/C=C\CC1C(O)CC(O)C1/C=C/C(O)COc1cccc(Cl)c1 (racemic) [(±)-Cloprostenol sodium salt] | -0.121
25 | CCn1c(=O)n(C2=C(CO)CN(CC3CCCCCCC3)CC2)c2ccccc21 | -0.0858
26 | COc1ccc(CC(C)NCC(O)c2ccc(O)c(NC=O)c2)cc1 (stereo not given) [Formoterol hemifumarate] | 0.154
27 | CCn1ccnc1CC1COc2ccccc2O1 (stereo not given) [Imiloxan hydrochloride] | 0.0801
28 | O=C(/C=C/c1c(C(=O)O)[nH]c2cc(Cl)cc(Cl)c12)Nc1ccccc1 [Gavestinel] | 0.0669
29 | O=C(O)c1ccc(-c2ccc3cc(O)c(C45CC6CC(CC(C6)C4)C5)cc3c2)cc1 | -0.256
30 | CC[C@@H]1Cn2c(c3nc(-c4ccccc4)nc-3n(C)c2=O)N1 | -0.022
31 | CCCCN1CCC(CCC(=O)c2cc(Cl)c(N)cc2OC)CC1 | 0.144
32 | Cc1cc(C)c(S(=O)(=O)Nc2cccc(C(F)(F)F)c2)c(C)c1 | 0.544
33 | Cn1cc(C2=C(c3ccc(Cl)cc3Cl)C(=O)NC2=O)c2ccccc21 | 0.0175
34 | Cc1ccc(CC2(O)CCN(CCOc3ccc(O)cc3)CC2)cc1 | -0.051
35 | CC1(C)Oc2ccc(C#N)cc2[C@@H](N2CCCC2=O)[C@@H]1O [Levcromakalim] | 0.0783
36 | CC[N+](CC)(CC)CC(=O)Nc1c(C)cccc1C [QX 314 bromide] | 0.119
37 | COC(=O)Nc1ccc2[nH]cc(CCNC(C)=O)c2c1 | -0.122
38 | CCN(CC)CCOC(=O)C1(c2ccc([N+](=O)[O-])cc2)CCCC1 [Nitrocaramiphen hydrochloride] | 0.126
39 | O=C(O)COc1cccc(-c2ocnc2-c2nc(-c3ccccc3)c(-c3ccccc3)o2)c1 | 0.135
40 | O=c1c(-c2ccc(O)cc2)coc2cc(O)cc(O)c12 [Genistein] | 0.0544
